Experimental data as given in publication PMC6625793, “The autophagic membrane tether ATG2A transfers lipids between membranes” (eLife, 2019).
Results are given in words; binding and its absence hold for the method and conditions named. Some results given as binding are weak or reduced against the parent protein; the word gives no strength. Where a sequence is shown, tags or fusion partners need not be part of it.

Protein sequences, listed by entry. Tags and fused reporters are not part of them.
UniProt Q2TAZ0: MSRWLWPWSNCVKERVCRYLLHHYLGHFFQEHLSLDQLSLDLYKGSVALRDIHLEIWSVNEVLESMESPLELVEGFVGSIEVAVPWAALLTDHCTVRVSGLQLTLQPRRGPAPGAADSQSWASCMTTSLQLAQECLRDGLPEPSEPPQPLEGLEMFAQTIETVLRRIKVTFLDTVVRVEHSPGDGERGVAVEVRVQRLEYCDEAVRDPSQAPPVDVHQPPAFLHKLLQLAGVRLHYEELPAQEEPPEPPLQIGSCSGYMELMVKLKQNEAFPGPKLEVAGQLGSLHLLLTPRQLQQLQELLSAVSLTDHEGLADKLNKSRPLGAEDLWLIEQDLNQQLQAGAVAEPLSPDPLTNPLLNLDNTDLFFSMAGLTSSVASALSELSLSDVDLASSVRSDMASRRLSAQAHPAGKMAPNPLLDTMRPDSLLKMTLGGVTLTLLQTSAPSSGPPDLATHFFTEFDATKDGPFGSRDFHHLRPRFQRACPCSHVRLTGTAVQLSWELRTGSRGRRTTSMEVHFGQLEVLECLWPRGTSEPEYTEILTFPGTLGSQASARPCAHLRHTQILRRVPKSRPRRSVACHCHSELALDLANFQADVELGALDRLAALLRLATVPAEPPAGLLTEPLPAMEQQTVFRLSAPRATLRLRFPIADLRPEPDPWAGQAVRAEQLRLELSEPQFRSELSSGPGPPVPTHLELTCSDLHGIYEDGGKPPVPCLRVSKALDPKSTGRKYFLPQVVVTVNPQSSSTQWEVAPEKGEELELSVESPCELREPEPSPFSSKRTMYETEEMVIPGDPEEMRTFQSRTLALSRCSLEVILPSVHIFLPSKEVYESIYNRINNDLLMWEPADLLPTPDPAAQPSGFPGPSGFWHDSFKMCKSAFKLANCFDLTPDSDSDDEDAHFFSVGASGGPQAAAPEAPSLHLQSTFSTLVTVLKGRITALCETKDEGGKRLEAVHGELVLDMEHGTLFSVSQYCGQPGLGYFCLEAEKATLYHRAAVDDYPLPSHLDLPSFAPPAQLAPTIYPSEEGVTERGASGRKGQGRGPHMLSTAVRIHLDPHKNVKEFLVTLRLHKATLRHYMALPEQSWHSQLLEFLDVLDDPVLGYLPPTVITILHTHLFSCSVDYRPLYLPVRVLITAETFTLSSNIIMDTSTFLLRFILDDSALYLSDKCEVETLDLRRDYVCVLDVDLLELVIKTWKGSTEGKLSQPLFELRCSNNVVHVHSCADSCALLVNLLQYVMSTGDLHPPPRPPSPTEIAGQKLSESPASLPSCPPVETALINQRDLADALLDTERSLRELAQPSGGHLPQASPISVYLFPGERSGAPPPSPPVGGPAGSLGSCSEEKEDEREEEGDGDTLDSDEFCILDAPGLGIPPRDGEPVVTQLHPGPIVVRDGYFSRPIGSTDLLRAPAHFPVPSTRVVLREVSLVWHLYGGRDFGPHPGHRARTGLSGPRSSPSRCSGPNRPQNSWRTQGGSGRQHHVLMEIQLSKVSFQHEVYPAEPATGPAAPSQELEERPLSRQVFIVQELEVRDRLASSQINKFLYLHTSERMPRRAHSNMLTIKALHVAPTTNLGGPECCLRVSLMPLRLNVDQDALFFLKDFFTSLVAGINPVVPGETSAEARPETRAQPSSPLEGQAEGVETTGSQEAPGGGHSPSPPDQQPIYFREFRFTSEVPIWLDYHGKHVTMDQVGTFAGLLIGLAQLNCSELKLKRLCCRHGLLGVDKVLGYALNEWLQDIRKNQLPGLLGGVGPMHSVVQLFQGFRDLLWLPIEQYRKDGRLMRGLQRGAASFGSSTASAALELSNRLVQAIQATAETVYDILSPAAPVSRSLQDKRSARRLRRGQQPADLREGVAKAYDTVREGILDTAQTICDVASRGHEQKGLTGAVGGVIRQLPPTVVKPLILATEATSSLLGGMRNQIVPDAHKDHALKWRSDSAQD

Key:
[1] = molecular target: human ATG2A-TwinStrepII (human) (UniProt Q2TAZ0); assay: pull-down; ATG2A-TwinStrepII loaded on Strep-Tactin Superflow beads, mixed with free 10xHis-WIPI4 or 6xHis-WIPI1; 20 mM HEPES pH 7.5, 150 mM NaCl, 0.5 mM TCEP, 20% glycerol, 0.1% Triton X-100; ~5 min incubation, three washes, elution with 5 mM desthiobiotin; SDS-PAGE with CBB staining; both …
[2] = molecular target: human ATG2A-TwinStrepII (human) (UniProt Q2TAZ0); assay: liposome flotation; 100 nM ATG2A-TwinStrepII with His-WIPI4 or His-WIPI1 and 25 µM LUVs (100 nm; 5% PI3P, 49% DOPC, 25% DOPE, 20% DOPS, 1% DiD); 20 mM HEPES pH 7.5, 150 mM NaCl, 1 mM TCEP; Nycodenz gradient; top, middle and bottom fractions by western blotting (anti-StrepII, anti-His); both purified

binding [1]: binds | binding [2]: binds
B1: 10xHis-human WIPI4 (protein, UniProt Q9Y484 1-360)
chain: MTQQPLRGVTSLRFNQDQSCFCCAMETGVRIYNVEPLMEKGHLDHEQVGSMGLVEMLHRSNLLALVGGGSSPKFSEISVLIWDDAREGKDSKEKLVLEFTFTKPVLSVRMRHDKIVIVLKNRIYVYSFPDNPRKLFEFDTRDNPKGLCDLCPSLEKQLLVFPGHKCGSLQLVDLASTKPGTSSAPFTINAHQSDIACVSLNQPGTVVASASQKGTLIRLFDTQSKEKLVELRRGTDPATLYCINFSHDSSFLCASSDKGTVHIFALKDTRLNRRSALARVGKVGPMIGQYVDSQWSLASFTVPAESACICAFGRNTSKNVNSVIAICVDGTFHKYVFTPDGNCNREAFDVYLDICDDDDF
